Results are given in words; binding and its absence hold for the method and conditions named. In cells and extracts the contact can be indirect. Some binding calls cover weakened binding; strength is not graded here. Where a sequence is shown, tags or fusion partners need not be part of it. Blank lines part the entries; values can stand above or below the binder they belong to.
Assays:
[1] = target: T1, APPL1-NLuc (human) (UniProt Q9UKG1); test: split reporter; split firefly luciferase complementation from pESC-URA-CLuc-AdipoR1-APPL1-NLuc compared in BY4741 (parent) and its isogenic izh2Δ and sip3Δ strains; cells grown 16 h at 30°C at 1%, 1.5% and 2% galactose
T1 sequence: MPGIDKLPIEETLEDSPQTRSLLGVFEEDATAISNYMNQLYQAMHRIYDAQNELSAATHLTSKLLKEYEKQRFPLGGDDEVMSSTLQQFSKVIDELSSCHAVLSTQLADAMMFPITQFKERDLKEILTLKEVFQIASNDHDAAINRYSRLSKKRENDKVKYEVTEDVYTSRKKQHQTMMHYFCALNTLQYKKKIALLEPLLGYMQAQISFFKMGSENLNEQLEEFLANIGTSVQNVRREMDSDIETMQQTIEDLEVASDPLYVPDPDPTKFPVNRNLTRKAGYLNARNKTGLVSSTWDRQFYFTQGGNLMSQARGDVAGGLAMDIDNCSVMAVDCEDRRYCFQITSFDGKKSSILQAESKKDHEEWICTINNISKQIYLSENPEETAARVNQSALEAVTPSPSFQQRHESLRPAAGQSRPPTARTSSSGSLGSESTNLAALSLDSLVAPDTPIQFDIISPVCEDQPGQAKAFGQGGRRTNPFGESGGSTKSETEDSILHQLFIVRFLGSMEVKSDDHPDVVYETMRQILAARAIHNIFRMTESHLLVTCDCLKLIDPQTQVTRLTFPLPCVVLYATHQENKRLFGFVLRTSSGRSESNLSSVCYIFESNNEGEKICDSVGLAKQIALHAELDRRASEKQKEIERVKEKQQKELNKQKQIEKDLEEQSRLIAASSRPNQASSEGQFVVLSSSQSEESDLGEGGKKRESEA

[2] = target: T2, CLuc-AdipoR1 (human) (UniProt Q96A54); test: split reporter; split firefly luciferase complementation in S. cerevisiae BY4741; CLuc-AdipoR1 (GAL1) and APPL1-NLuc (GAL10) from one plasmid pESC-URA-CLuc-AdipoR1-APPL1-NLuc; galactose induced; colonies imaged with a CCD camera after D-luciferin, cell suspensions in 0.1 M Na citrate pH 3.0 with 1 mM D-luciferin read in a microplate reader; no ligand added
T2 sequence: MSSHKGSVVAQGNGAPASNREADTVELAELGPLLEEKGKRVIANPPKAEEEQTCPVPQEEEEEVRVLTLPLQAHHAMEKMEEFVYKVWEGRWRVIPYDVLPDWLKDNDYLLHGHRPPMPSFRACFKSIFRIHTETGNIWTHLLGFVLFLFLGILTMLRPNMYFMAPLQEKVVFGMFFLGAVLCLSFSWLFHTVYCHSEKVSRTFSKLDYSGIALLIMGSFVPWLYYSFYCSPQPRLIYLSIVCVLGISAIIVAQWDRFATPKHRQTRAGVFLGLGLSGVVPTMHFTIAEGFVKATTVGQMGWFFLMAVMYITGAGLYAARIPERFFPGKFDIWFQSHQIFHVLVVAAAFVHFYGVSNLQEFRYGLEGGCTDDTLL

[3] = target: T3, CLuc-IZH2 (S. cerevisiae) (UniProt Q12442); test: split reporter; split firefly luciferase complementation in BY4741 co-transformed with pESC-URA-CLuc-receptor (GAL1 promoter, galactose 0-2%) and p425GPD-APPL1-NLuc (constitutive GPD promoter); cells grown 16 h at 30°C
T3 sequence: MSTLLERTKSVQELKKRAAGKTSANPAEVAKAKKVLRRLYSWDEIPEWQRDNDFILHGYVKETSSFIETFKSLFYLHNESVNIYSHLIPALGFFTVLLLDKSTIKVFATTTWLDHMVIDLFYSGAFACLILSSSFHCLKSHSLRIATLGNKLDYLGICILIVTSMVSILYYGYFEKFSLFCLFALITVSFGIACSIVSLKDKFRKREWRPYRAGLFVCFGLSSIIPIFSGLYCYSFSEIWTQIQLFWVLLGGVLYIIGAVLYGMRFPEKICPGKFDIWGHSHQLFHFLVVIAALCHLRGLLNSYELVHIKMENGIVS

[4] = target: T2, CLuc-AdipoR1 (human); test: split reporter; split firefly luciferase complementation from pESC-URA-CLuc-AdipoR1-APPL1-NLuc compared in BY4741 (parent) and its isogenic izh2Δ and sip3Δ strains; cells grown 16 h at 30°C at 1%, 1.5% and 2% galactose

binding [1]: binds
B1: Izh2p (receptor, UniProt Q12442 1-317)
chain: T3 sequence

binding [2]: binds
binding [3]: binds
binding [4]: binds
B2: APPL1-NLuc (protein, UniProt Q9UKG1 1-709)
chain: T1 sequence

— publication PMC3676391
